Measurements published in patent US20260258118A1.
These are yes or no findings as the source states them, for the method shown. Some entries that bind do so weakly or less than the wild type.

T1: Pro-C3 target peptide … (C-terminal neo-epitope of PIIINP, 144-153 of the alpha1 chain) (human)
T1 sequence (peptide): CPTGPQNYSP

T2: PRO-C6 peptide … (last 10 amino acids of the type VI collagen alpha3 chain)
T2 sequence (peptide): KPGVISVMGT

B1: Pro-C3 monoclonal antibody (monoclonal antibody NB61N-62) (antibody, mouse IgG2a, kappa, V domains shown)
VH: EVQLQQSGPEVLKPGASVKMSCKASGYTFINYVIHWLKQKAGQGPEWIGYMNPYNDVPKNNAKFRGKARLTSDRSSTTAYMELNSLTSEDSAVYYCARGGFFGPLSYWGQGTLVTVSA
VL: DVLMTQTPLSLSVSLGDQASISCRSSQNIVYSNGDTYFEWYLQKPGQSPKLLIYKVSQRFSGVPDRFSGSGSGTDFTLKISRVETEDLGVYYCFQGAHDPPAFGGGTKLELKR
B2: PRO-C6 monoclonal antibody 10A3 (antibody, mouse IgG1, kappa, V domains shown)
VH: EVQLQQSGPVMVKPGTSVKTSCKASGYTFTDFNMNWVKQSHGKSLEWIGAINPHNGATSYNQKFSGKATLTVDKSSSTAYMELNSLTSDDSAVYYCARWGNGKNSWGQGTTLTVSS
VL: DVVMTQTPLSLPVNLGDQASISCRSSQRIVHSNGITFLEWYLQKPGQSPKLLIYRVSNRFSGVPDRFSGSGSGTDFTLKISRVEAEDLGLYYCFQGSHVPLTFGAGTRLELKR

How the values were obtained:
[1] = biological target: T1, Pro-C3 target peptide … (C-terminal neo-epitope of PIIINP, 144-153 of the alpha1 chain) (human); assay: antibody characterization with peptides (ELISA, as previously described)
[2] = biological target: T2, PRO-C6 peptide … (last 10 amino acids of the type VI collagen alpha3 chain); assay: hybridoma clone screening with peptides

Binder	binding [1]	binding [2]
B1	binds	
B2		binds
